The values below come from PMC2905333.

The chains behind the UniProt entries cited, without tags or fusion partners. Where a name states a change or a piece, a line headed by the entry shows the natural chain unless it says otherwise.
UniProt Q9H9V4: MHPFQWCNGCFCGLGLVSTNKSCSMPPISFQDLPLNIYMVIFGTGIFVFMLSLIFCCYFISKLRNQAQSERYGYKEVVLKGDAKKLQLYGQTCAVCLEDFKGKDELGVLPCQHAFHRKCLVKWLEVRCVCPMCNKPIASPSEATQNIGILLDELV
UniProt P49069: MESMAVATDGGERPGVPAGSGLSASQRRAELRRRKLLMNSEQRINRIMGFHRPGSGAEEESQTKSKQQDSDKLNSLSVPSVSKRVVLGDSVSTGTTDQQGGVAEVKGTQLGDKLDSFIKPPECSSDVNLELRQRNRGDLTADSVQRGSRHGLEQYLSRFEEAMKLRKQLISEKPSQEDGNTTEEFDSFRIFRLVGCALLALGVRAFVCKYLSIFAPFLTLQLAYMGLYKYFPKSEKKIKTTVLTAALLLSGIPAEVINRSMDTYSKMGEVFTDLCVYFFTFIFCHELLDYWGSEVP

These are yes or no findings as the source states them, for the method shown. Binding seen in cells or lysates may run through a third protein.

The target in this assay is mut-RNF122-myc (human) (UniProt Q9H9V4). Nature of the assay: co-IP; HEK293T cotransfected with RNF122-myc or mut-RNF122-myc and CAML-FLAG; 2.5 μg/mL MG132 for 6 h; lysed in PBS with 1% Triton X-100; immunoprecipitated with anti-myc antibody agarose beads, blot with anti-FLAG.

As for “FLAG-tagged CAML (CAML-FLAG) (from UniProt P49069 1-296)”, the binding result was “no binding”.
